According to PMC9157410:

Key:
[1] = target: T1, TpiA of S. pneumoniae in BALF of an infected mouse (S. pneumoniae D39) (UniProt P66943); test: far-Western, overlay or dot blot; BALF samples from a pneumococcus-infected mouse blotted, probed with plasminogen, plasminogen-bound bands detected (Fig. S5); only the binder purified
T1 sequence: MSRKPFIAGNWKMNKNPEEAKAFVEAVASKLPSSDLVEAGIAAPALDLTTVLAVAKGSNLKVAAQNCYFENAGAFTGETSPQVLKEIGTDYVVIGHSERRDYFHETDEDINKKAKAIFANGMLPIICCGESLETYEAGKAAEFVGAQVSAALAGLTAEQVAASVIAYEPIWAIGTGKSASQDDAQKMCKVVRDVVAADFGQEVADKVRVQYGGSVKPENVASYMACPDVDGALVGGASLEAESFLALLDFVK

[2] = target: T2, recombinant TpiA (triosephosphate isomerase of Streptococcus pneumoniae D39) (S. pneumoniae D39) (UniProt P66943); test: far-Western, overlay or dot blot; rTpiA (200 ng) and BSA (200 ng) after SDS/PAGE on PVDF membranes; incubated 90 min with 30 µg/mL human plasminogen or laminin in TBST with blocking reagent at room temperature; detected with anti-plasminogen or anti-laminin antibodies; both purified
T2 sequence: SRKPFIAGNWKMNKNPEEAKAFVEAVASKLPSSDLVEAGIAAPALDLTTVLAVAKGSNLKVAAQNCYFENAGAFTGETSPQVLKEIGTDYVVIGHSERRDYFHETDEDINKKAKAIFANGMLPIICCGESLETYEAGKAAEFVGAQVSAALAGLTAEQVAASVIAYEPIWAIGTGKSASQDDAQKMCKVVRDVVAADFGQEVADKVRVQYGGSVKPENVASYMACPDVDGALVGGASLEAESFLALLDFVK

[3] = target: plasminogen from human plasma (human); test: ELISA; host proteins and BSA coated at 1 µg per well; 1 µg per well of rTpiA added, 37 °C, 1 h, PBST; bound rTpiA detected with anti-TpiA peptide antibody; for plasminogen also with EACA added along with rTpiA; both purified

plasminogen from human plasma was tested, and the binding [1] was “binds” and the binding [2] was “binds”.

B1: recombinant TpiA (triosephosphate isomerase of Streptococcus pneumoniae D39) (enzyme, UniProt P66943 2-252)
chain: SRKPFIAGNWKMNKNPEEAKAFVEAVASKLPSSDLVEAGIAAPALDLTTVLAVAKGSNLKVAAQNCYFENAGAFTGETSPQVLKEIGTDYVVIGHSERRDYFHETDEDINKKAKAIFANGMLPIICCGESLETYEAGKAAEFVGAQVSAALAGLTAEQVAASVIAYEPIWAIGTGKSASQDDAQKMCKVVRDVVAADFGQEVADKVRVQYGGSVKPENVASYMACPDVDGALVGGASLEAESFLALLDFVK
B1 was tested, and the binding [3] was “binds”.

These are yes or no findings as the source states them, for the method shown. A result given as binding can be weak or reduced; the word gives no strength.
